Publication PMC8847575, “HSL1 and BAM1/2 impact epidermal cell development by sensing distinct signaling peptides” (Nature Communications, 2022)
Results are given in words; binding and its absence hold for the method and conditions named.

Protein sequences, listed by entry. Tags and fused reporters are not part of them. Lines headed by an entry give the natural chain unless they say otherwise; changes in a name come on top.
UniProt Q9FZE4: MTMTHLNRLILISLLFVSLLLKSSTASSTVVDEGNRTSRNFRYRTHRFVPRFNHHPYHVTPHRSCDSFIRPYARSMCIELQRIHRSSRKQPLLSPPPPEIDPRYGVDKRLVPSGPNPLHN

T1: BAM1 (BARELY ANY MERISTEM 1) ectodomain (Arabidopsis) (UniProt O49545)
T1 sequence: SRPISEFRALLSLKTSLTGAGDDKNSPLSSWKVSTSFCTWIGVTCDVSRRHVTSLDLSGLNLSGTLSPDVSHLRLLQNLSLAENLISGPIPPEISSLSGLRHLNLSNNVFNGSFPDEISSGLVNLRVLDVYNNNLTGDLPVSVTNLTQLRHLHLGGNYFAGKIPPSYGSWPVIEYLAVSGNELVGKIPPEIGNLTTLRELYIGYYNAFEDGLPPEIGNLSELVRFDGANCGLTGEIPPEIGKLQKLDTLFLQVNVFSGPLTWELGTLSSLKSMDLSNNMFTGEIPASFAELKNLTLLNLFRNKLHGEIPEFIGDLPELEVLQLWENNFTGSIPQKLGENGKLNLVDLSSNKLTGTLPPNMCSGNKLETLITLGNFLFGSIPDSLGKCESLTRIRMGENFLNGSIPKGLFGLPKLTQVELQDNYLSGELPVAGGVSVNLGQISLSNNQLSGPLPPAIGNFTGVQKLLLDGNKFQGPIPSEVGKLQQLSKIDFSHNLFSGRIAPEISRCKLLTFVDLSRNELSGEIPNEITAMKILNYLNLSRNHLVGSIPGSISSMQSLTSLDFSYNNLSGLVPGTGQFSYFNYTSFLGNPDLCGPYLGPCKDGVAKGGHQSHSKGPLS

T2: HSL1^Y261AR402A ectodomain (Arabidopsis) (UniProt Q9SGP2)
T2 sequence: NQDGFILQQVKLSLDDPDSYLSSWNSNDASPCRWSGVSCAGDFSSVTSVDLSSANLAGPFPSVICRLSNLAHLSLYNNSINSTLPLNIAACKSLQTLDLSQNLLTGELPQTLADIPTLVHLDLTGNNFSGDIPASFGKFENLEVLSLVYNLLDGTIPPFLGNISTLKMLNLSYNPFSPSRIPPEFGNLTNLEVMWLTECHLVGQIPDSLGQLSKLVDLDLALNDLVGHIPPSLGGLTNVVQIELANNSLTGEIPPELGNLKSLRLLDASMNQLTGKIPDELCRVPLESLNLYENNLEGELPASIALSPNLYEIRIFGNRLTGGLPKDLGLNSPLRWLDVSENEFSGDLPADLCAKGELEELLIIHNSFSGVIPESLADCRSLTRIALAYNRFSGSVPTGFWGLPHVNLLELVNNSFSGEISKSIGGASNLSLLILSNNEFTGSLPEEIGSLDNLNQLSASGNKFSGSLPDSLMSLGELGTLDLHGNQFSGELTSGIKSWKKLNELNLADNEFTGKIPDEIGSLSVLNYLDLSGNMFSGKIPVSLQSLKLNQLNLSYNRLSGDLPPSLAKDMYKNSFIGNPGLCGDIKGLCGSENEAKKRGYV

T3: HSL1^N543AY544AN566A ectodomain (Arabidopsis) (UniProt Q9SGP2)
T3 sequence: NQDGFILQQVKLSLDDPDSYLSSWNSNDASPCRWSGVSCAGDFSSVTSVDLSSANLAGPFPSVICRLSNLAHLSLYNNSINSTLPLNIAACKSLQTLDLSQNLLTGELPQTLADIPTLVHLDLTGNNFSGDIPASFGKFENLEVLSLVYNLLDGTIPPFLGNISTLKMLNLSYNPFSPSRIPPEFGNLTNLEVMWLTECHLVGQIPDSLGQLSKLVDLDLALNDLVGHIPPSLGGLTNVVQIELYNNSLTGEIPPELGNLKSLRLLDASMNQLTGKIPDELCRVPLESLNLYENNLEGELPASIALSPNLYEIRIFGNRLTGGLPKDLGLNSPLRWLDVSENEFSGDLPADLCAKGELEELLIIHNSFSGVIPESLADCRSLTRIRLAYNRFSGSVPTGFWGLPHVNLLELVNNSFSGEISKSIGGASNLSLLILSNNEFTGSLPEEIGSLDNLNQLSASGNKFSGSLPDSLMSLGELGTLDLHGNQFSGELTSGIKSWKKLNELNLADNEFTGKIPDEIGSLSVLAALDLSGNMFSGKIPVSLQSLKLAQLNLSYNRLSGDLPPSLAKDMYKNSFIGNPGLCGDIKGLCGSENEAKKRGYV


What was measured:
[1] = target: T1, BAM1 (BARELY ANY MERISTEM 1) ectodomain (Arabidopsis); assay: ITC; peptide (75 to 600 µM) injected into 10 to 30 µM HSL1 or BAM1 ectodomain in the cell; 25 °C; 20 mM sodium citrate pH 5.0, 150 mM NaCl; N fitted to 1; both purified
[2] = target: T2, HSL1^Y261AR402A ectodomain (Arabidopsis); assay: SEC; Superdex 200 Increase 10/300 GL; 20 mM citric acid pH 5, 100 mM NaCl; 200 µg HSL1 or mutant with SERK1 without or with peptide, 1:1:1.5 molar ratio; fractions on SDS-PAGE; both purified
[3] = target: T3, HSL1^N543AY544AN566A ectodomain (Arabidopsis); assay: as above

binding [1]	Binder	binding [2]	binding [3]
no binding	PIPPSGPNPLHN (peptide, UniProt Q9FZE4 109-120) [CLE9^R109PL110IV111P peptide]		
	SERK1 (SOMATIC EMBRYOGENESIS RECEPTOR KINASE 1) ectodomain (domain or fragment) ASANLEGDALHTLRVTLVDPNNVLQSWDPTLVNPCTWFHVTCNNENSVIRVDLGNAELSGHLVPELGVLKNLQYLELYSNNITGPIPSNLGNLTNLVSLDLYLNSFSGPIPESLGKLSKLRFLRLNNNSLTGSIPMSLTNITTLQVLDLSNNRLSGSVPDNGSFSLFTPISFANNLDLCGPVTSHPCPGS	no binding	no binding
